According to publication PMC8792056 (2022):

Tests used:
[1] = target: DNAJB12-short tagged with FLAG (human); test: co-IP; reverse experiment (Supplementary Fig. 6q, r): DNAJB12-short with DNAJB14-FL in cells; which of the two was the FLAG-tagged bait is not given
[2] = target: DNAJB14-HPDmut1, FLAG-tagged (human) (UniProt Q8TBM8); test: co-IP; HEK293T cells co-transfected with FLAG-tagged DNAJB14 forms and DNAJB12-FL-mOrange; lysis in 50 mM HEPES pH 7.9, 0.5% Triton X-100, 5% glycerol, 150 mM NaCl, 2 mM EDTA; anti-FLAG M2 beads 3 h at 4 °C, 7 washes; blot with anti-RFP for mOrange, normalised to the FLAG band
[3] = target: DNAJB14-short, FLAG-tagged (human); test: as above

binding [1] | binding [2] | binding [3] | Binder
no binding | – | – | DNAJB14-FL (partner of DNAJB12-short in the reverse co-IP of Supplementary Fig. 6q, r) (protein, UniProt Q8TBM8-1 1-379) MEGNRDEAEKCVEIAREALNAGNREKAQRFLQKAEKLYPLPSARALLEIIMKNGSTAGNSPHCRKPSGSGDQSKPNCTKDSTSGSGEGGKGYTKDQVDGVLSINKCKNYYEVLGVTKDAGDEDLKKAYRKLALKFHPDKNHAPGATDAFKKIGNAYAVLSNPEKRKQYDLTGNEEQACNHQNNGRFNFHRGCEADITPEDLFNIFFGGGFPSGSVHSFSNGRAGYSQQHQHRHSGHEREEERGDGGFSVFIQLMPIIVLILVSLLSQLMVSNPPYSLYPRSGTGQTIKMQTENLGVVYYVNKDFKNEYKGMLLQKVEKSVEEDYVTNIRNNCWKERQQKTDMQYAAKVYRDDRLRRKADALSMDNCKELERLTSLYKGG
– | binds | no binding | DNAJB12-FL-mOrange (protein, UniProt Q9NXW2-1 1-375) MESNKDEAERCISIALKAIQSNQPDRALRFLEKAQRLYPTPRVRALIESLNQKPQTAGDQPPPTDTTHATHRKAGGTDAPSANGEAGGESTKGYTAEQVAAVKRVKQCKDYYEILGVSRGASDEDLKKAYRRLALKFHPDKNHAPGATEAFKAIGTAYAVLSNPEKRKQYDQFGDDKSQAARHGHGHGDFHRGFEADISPEDLFNMFFGGGFPSSNVHVYSNGRMRYTYQQRQDRRDNQGDGGLGVFVQLMPILILILVSALSQLMVSSPPYSLSPRPSVGHIHRRVTDHLGVVYYVGDTFSEEYTGSSLKTVERNVEDDYIANLRNNCWKEKQQKEGLLYRARYFGDTDMYHRAQKMGTPSCSRLSEVQASLHG

Results are given in words; binding and its absence hold for the method and conditions named. In cells and extracts the contact can be indirect. For part of these data: Binding calls can cover weak binding; strength is not graded here.
